# Measured data: PubChem BioAssay AID1259308 (NCATS, 2017)
# Screen: 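Genes whose loss raises luciferase production in HEK293 cells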 (primary screen)
# Cells: human HEK293 embryonic kidney cells stably expressing firefly luciferase (HEK-CMV-Luc2-Hygro)
# Reagents: single siRNA against human genes, 0.8 pmol siRNA per well
# Time to read-out: 72 h
# Measurement: 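Reporter luminescence and viable-cell signal on separate replicate plates, given as percent of non-targeting control and median/MAD z-scores, plus per-cell luciferase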
# Direction: total luciferase, z-score and total luciferase, % of control: higher = more reporter protein produced; luciferase per cell, z-score: higher = more reporter output per viable cell; viable cells, % of control: higher = more viable cells
# Active means: 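Active when the median/MAD z-score for overall luciferase is greater than 3; a gene was taken forward for validation with new siRNAs if at least two of its three siRNAs passed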
# Meaning of the calls: active = raised luciferase; inactive = no rise
# The deposit covers about 59,000 reagents; below is a random part of them. About 1,510 of them (2.6%) count as active. 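Calls use total luciferase alone and ignore viability, so some active siRNAs may act by altering cell number.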 Entries without a mark were called inactive.
gene symbol,PubChem SID,"total luciferase, z-score","total luciferase, % of control","luciferase per cell, z-score","viable cells, % of control"
OR5A1 (olfactory receptor family 5 subfamily A member 1),SID160761444,4.01 (active),162,2.94,83.3
OR5A1 (olfactory receptor family 5 subfamily A member 1),SID160761445,0.621,94.2,0.735,86.8
OR5A1 (olfactory receptor family 5 subfamily A member 1),SID160761446,2.27,127,2.17,80.2
OFD1 (OFD1 centriole and centriolar satellite protein),SID160720134,-0.256,76.8,-1.15,116
OFD1 (OFD1 centriole and centriolar satellite protein),SID160720135,-1.23,57.5,-0.961,82.7
OFD1 (OFD1 centriole and centriolar satellite protein),SID160720137,0.557,93,0.606,88.6
RBMY2DP,SID160770556,-0.0928,80,-0.127,92.5
RBMY2DP,SID160770557,0.0672,83.2,-0.745,113
RBMY2DP,SID160770558,2.19,125,0.618,119
KRCC1 (lysine rich coiled-coil 1),SID160733499,-0.05,80.9,-0.279,97.3
KRCC1 (lysine rich coiled-coil 1),SID160740590,0.639,94.6,0.748,86.8
KRCC1 (lysine rich coiled-coil 1),SID160740591,-0.216,77.6,-0.907,110
PPP4R1 (protein phosphatase 4 regulatory subunit 1),SID160716176,1.37,109,1.58,80.6
PPP4R1 (protein phosphatase 4 regulatory subunit 1),SID160716272,0.481,91.4,0.459,90.5
PPP4R1 (protein phosphatase 4 regulatory subunit 1),SID160716373,0.426,90.4,-0.113,104
RRN3 (RNA polymerase I transcription factor RRN3),SID160742040,-1.32,55.6,-0.917,79
RRN3 (RNA polymerase I transcription factor RRN3),SID160742041,-2.1,40.1,0.543,38.8
RRN3 (RNA polymerase I transcription factor RRN3),SID160742042,-0.896,64.1,-0.256,76.6
NAP1L3 (nucleosome assembly protein 1 like 3),SID160777778,-1.35,55,-1.73,97
NAP1L3 (nucleosome assembly protein 1 like 3),SID160777779,-2.33,35.5,-2.34,73.5
NAP1L3 (nucleosome assembly protein 1 like 3),SID160777780,-0.601,69.9,-0.552,90.4
PLAA (phospholipase A2 activating protein),SID160722065,1.01,102,0.807,92.1
PLAA (phospholipase A2 activating protein),SID160722066,1.25,107,1.35,83.7
PLAA (phospholipase A2 activating protein),SID160722067,-0.959,62.8,-1.22,96.7
SH2B3 (SH2B adaptor protein 3),SID160724034,-1.51,51.9,-1.15,78.5
SH2B3 (SH2B adaptor protein 3),SID160724041,0.903,99.8,1.17,82
SH2B3 (SH2B adaptor protein 3),SID160724050,2.32,128,1.38,99.3
GPHB5 (glycoprotein hormone subunit beta 5),SID160724760,-2.51,32,-1.94,59.5
GPHB5 (glycoprotein hormone subunit beta 5),SID160724761,-0.949,63,-0.179,73.8
GPHB5 (glycoprotein hormone subunit beta 5),SID160724762,-0.318,75.6,-0.276,90.8
ARHGEF19 (Rho guanine nucleotide exchange factor 19),SID160756728,-0.534,71.3,-0.596,93.2
ARHGEF19 (Rho guanine nucleotide exchange factor 19),SID160756729,3.63 (active),154,1.71,110
ARHGEF19 (Rho guanine nucleotide exchange factor 19),SID160756730,0.804,97.9,0.0916,107
XTBD1 (XRN2 binding domain containing 1),SID160753953,-0.576,70.4,-0.157,82
XTBD1 (XRN2 binding domain containing 1),SID160753954,-0.43,73.3,-0.11,84.3
XTBD1 (XRN2 binding domain containing 1),SID160753955,-1.19,58.1,-0.626,76.6
PARP8 (poly(ADP-ribose) polymerase family member 8),SID160749143,-0.115,79.6,-0.387,98.5
PARP8 (poly(ADP-ribose) polymerase family member 8),SID160749144,0.213,86.1,0.346,87.9
PARP8 (poly(ADP-ribose) polymerase family member 8),SID160749145,1.7,116,1.08,97.2
CAMKK1 (calcium/calmodulin dependent protein kinase kinase 1),SID160751968,0.352,88.9,0.789,80.7
CAMKK1 (calcium/calmodulin dependent protein kinase kinase 1),SID160751969,0.231,86.5,0.195,91.8
CAMKK1 (calcium/calmodulin dependent protein kinase kinase 1),SID160751970,-0.738,67.2,-0.555,86.9
SBSPON (somatomedin B and thrombospondin type 1 domain containing),SID160759569,-0.598,70,-0.342,85.6
SBSPON (somatomedin B and thrombospondin type 1 domain containing),SID160759570,1.7,116,1.57,85.6
SBSPON (somatomedin B and thrombospondin type 1 domain containing),SID160759571,1.16,105,0.528,102
TYW2 (tRNA wybutosine-synthesizing protein 2),SID160731486,2.17,125,3.01,63.2
TYW2 (tRNA wybutosine-synthesizing protein 2),SID160742810,0.368,89.2,-0.421,111
TYW2 (tRNA wybutosine-synthesizing protein 2),SID160742811,0.39,89.6,0.116,97.1
TMEM235 (transmembrane protein 235),SID160724999,0.116,84.2,1.22,68.2
TMEM235 (transmembrane protein 235),SID160732956,-0.0472,80.9,0.0136,90.1
TMEM235 (transmembrane protein 235),SID160763107,0.309,88,0.0999,95.8
GALM (galactose mutarotase),SID160756981,0.707,96,1.43,73.6
GALM (galactose mutarotase),SID160756982,3.36 (active),149,2.12,95.2
GALM (galactose mutarotase),SID160756983,-1,62,-1.17,94.4
SH3BGR (SH3 domain binding glutamate rich protein),SID160716661,0.312,88.1,-0.0709,100
SH3BGR (SH3 domain binding glutamate rich protein),SID160716662,0.0617,83.1,0.0406,91.9
SH3BGR (SH3 domain binding glutamate rich protein),SID160733912,-0.322,75.5,-0.00404,84.4

In a second layout: entries from further up.
gene symbol | PubChem SID | total luciferase, z-score | total luciferase, % of control | luciferase per cell, z-score | viable cells, % of control
KRCC1 (lysine rich coiled-coil 1) | SID160740591 | -0.216 | 77.6 | -0.907 | 110
PPP4R1 (protein phosphatase 4 regulatory subunit 1) | SID160716176 | 1.37 | 109 | 1.58 | 80.6
PPP4R1 (protein phosphatase 4 regulatory subunit 1) | SID160716272 | 0.481 | 91.4 | 0.459 | 90.5
PPP4R1 (protein phosphatase 4 regulatory subunit 1) | SID160716373 | 0.426 | 90.4 | -0.113 | 104
RRN3 (RNA polymerase I transcription factor RRN3) | SID160742040 | -1.32 | 55.6 | -0.917 | 79
RRN3 (RNA polymerase I transcription factor RRN3) | SID160742041 | -2.1 | 40.1 | 0.543 | 38.8
